We go through one molecule from article PMC11774777, “A PDZ-kinase allosteric relay mediates Par complex regulator exchange” (The Journal of Biological Chemistry, 2024).

These are yes or no findings as the source states them, for the method shown. Some entries that bind do so weakly or less than the wild type. Where a sequence is shown, tags or fusion partners need not be part of it.

This test concerns the target T1, his-Par-6, full length (UniProt O97111).
T1 sequence: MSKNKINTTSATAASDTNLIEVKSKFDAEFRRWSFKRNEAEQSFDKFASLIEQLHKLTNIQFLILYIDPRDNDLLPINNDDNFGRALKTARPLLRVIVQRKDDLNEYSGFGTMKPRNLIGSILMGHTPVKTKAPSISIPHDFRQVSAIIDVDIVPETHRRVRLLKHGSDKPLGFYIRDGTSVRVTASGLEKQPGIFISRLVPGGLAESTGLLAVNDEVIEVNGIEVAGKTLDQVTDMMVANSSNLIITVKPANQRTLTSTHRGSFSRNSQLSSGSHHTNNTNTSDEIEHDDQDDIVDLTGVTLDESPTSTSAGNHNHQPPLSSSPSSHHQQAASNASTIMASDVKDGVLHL
Put plainly: co-purification; co-expressed in HEK 293F cells; lysate on HisPur Cobalt resin, then anion exchange (Source Q, 100 to 550 mM NaCl), fractions with the desired proteins pooled.

B1: aPKC, full length, as co-expressed in the Par complexes (enzyme, UniProt A1Z9X0 1-606)
chain: MQKMPSQILNDGSSVSLNSASMNMANTPNSITVKTAYNGQIIITTINKNISYEELCYEIRNICRFPLDQPFTIKWVDEENDPCTISTKMELDEAIRLYEMNFDSQLVIHVFPNVPQAPGLSCDGEDRSIYRRGARRWRKLYRVNGHIFQAKRFNRRAFCAYCQDRIWGLGRQGFKCIQCKLLVHKKCHKLVQKHCTDQPEPLVKERAEESSDPIPVPLPPLPYEAMSGGAEACETHDHAHIVAPPPPEDPLEPGTQRQYSLNDFELIRVIGRGSYAKVLMVELRRTRRIYAMKVIKKALVTDDEDIDWVQTEKHVFETASNHPFLVGLHSCFQTPSRLFFVIEFVRGGDLMYHMQRQRRLPEEHARFYAAEISLALNFLHEKGIIYRDLKLDNVLLDHEGHIKLTDYGMCKEGIRPGDTTSTFCGTPNYIAPEILRGEDYGFSVDWWALGVLLYEMLAGRSPFDLAGASENPDQNTEDYLFQVILEKTIRIPRSLSVRAASVLKGFLNKNPADRLGCHRESAFMDIVSHPFFKNMDWELLERKQVTPPFKPRLDSDRDLANFPPEFTGEAVQLTPDDDHVIDNIDQSEFEGFEYVNPLLMSLEDCV
For the molecule B1, the binding result is “binds”.
